Like-named read-outs stand apart in the source and are kept apart here. No constants are given. Whether binding was seen depends on the method and setting. In cells and extracts the contact can be indirect. Some entries that bind do so weakly or less than the wild type. For some assays here: Where a sequence is shown, tags or fusion partners need not be part of it.
How the values were obtained:
Assay in all cases: co-IP
FLAG-TPL-2 [1] = molecular target: FLAG-TPL-2 (UniProt Q63562)
[2] = molecular target: T1, BCL-3 (expressed in Nfkb1-/- MEFs) (UniProt P20749)
T1 sequence: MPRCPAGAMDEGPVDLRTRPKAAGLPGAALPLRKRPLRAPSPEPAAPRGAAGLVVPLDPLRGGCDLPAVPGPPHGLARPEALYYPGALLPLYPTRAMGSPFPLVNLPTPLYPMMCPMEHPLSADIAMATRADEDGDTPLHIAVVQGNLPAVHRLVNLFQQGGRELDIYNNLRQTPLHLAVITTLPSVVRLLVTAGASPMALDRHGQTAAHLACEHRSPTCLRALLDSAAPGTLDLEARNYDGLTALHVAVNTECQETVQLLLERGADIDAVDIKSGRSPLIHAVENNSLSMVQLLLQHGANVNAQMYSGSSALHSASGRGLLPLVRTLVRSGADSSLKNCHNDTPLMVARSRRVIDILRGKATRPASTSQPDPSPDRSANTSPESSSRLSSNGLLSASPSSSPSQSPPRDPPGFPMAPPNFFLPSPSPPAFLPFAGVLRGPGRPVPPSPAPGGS

By UniProt entry, the sequences of proteins in these tests, tags left out.
UniProt Q63562: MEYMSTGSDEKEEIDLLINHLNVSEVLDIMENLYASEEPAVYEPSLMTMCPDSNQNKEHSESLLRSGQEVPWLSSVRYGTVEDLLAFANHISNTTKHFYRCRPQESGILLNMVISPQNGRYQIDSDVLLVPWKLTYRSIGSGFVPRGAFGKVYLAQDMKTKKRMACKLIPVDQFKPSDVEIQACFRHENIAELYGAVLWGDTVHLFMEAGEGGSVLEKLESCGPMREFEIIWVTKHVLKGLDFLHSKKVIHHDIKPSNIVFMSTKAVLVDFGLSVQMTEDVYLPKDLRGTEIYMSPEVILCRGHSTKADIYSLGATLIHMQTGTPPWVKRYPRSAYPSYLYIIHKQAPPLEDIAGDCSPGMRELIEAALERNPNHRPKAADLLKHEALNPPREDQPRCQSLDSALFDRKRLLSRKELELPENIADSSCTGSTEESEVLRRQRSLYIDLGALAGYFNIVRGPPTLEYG
UniProt P41279: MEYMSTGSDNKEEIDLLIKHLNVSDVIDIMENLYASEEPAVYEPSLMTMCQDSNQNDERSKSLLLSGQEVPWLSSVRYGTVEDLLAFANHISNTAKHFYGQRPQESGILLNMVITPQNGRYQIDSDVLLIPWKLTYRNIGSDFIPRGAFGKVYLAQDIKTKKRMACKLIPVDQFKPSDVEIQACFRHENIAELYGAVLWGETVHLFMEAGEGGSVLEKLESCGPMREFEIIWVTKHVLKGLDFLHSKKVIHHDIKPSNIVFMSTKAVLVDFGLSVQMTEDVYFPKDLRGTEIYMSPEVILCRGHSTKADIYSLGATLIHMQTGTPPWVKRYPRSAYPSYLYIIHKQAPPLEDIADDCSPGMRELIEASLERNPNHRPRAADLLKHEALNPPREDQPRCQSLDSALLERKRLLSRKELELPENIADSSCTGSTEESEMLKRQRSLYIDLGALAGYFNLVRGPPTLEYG
UniProt P19838: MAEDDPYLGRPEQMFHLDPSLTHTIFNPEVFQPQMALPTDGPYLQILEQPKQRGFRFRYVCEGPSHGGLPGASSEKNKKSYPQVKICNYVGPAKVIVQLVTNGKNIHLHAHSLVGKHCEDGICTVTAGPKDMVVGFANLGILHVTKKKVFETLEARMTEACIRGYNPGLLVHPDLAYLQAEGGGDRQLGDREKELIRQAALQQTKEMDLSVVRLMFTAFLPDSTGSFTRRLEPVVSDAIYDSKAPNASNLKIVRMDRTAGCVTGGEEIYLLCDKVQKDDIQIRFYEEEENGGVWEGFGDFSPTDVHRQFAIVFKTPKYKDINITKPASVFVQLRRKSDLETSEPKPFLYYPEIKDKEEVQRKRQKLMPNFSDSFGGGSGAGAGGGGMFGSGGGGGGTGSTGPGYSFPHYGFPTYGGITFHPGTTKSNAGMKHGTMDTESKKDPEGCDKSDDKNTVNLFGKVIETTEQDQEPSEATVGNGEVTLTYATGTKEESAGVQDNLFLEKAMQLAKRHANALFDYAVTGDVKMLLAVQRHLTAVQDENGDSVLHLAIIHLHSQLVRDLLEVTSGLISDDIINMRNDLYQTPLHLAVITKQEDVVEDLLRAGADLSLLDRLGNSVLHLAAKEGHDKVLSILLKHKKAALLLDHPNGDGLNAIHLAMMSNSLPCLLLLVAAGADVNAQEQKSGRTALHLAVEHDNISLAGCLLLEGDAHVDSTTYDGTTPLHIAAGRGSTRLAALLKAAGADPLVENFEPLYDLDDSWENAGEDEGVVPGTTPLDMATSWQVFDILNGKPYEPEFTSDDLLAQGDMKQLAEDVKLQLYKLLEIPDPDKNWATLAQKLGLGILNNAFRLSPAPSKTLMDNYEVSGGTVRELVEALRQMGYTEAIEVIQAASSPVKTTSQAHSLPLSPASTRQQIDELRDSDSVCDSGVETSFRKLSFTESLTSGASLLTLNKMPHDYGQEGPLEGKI

BCL-3 = molecular target: T2, BCL-3 (UniProt P20749)
T2 sequence: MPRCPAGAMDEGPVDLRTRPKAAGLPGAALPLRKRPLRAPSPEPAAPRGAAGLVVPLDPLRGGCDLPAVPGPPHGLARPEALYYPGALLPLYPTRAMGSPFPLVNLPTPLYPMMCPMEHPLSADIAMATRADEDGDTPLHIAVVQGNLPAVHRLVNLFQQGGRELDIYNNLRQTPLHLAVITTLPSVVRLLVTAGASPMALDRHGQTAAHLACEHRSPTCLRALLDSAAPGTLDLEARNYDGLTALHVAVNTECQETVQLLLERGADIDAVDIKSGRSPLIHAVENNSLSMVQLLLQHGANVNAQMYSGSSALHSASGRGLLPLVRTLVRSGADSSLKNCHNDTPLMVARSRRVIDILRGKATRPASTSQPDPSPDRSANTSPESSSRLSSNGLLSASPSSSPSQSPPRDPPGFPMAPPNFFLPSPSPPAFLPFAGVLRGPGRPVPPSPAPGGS

[3] = molecular target: endogenous TPL-2 (human (endogenous in THP-1)) (UniProt P41279)
FLAG-TPL-2 [4] = molecular target: FLAG-TPL-2 (UniProt Q63562); remark: listed apart in the source

Q: Which binding (FLAG-TPL-2 [1]) does the source give for XP-p105 (from UniProt P19838 1-968) here?
A: The binding was “binds”.

Q: How did the binding [2] turn out when “TPL-2 (expressed in Nfkb1-/- MEFs) (from UniProt Q63562 1-467)” was run?
A: Its binding is “binds”.

Q: How did the binding (BCL-3) turn out when TPL-2 (from UniProt Q63562 1-467) was run?
A: The binding was “binds”.

B1: endogenous BCL-3 (protein, UniProt P20749 1-454)
chain: MPRCPAGAMDEGPVDLRTRPKAAGLPGAALPLRKRPLRAPSPEPAAPRGAAGLVVPLDPLRGGCDLPAVPGPPHGLARPEALYYPGALLPLYPTRAMGSPFPLVNLPTPLYPMMCPMEHPLSADIAMATRADEDGDTPLHIAVVQGNLPAVHRLVNLFQQGGRELDIYNNLRQTPLHLAVITTLPSVVRLLVTAGASPMALDRHGQTAAHLACEHRSPTCLRALLDSAAPGTLDLEARNYDGLTALHVAVNTECQETVQLLLERGADIDAVDIKSGRSPLIHAVENNSLSMVQLLLQHGANVNAQMYSGSSALHSASGRGLLPLVRTLVRSGADSSLKNCHNDTPLMVARSRRVIDILRGKATRPASTSQPDPSPDRSANTSPESSSRLSSNGLLSASPSSSPSQSPPRDPPGFPMAPPNFFLPSPSPPAFLPFAGVLRGPGRPVPPSPAPGGS
Q: With B1 as the molecule, how does the binding [3] read?
A: Its binding is “binds”.

B2: MYC-BCL-3 (protein, UniProt P20749 1-454)
chain: MPRCPAGAMDEGPVDLRTRPKAAGLPGAALPLRKRPLRAPSPEPAAPRGAAGLVVPLDPLRGGCDLPAVPGPPHGLARPEALYYPGALLPLYPTRAMGSPFPLVNLPTPLYPMMCPMEHPLSADIAMATRADEDGDTPLHIAVVQGNLPAVHRLVNLFQQGGRELDIYNNLRQTPLHLAVITTLPSVVRLLVTAGASPMALDRHGQTAAHLACEHRSPTCLRALLDSAAPGTLDLEARNYDGLTALHVAVNTECQETVQLLLERGADIDAVDIKSGRSPLIHAVENNSLSMVQLLLQHGANVNAQMYSGSSALHSASGRGLLPLVRTLVRSGADSSLKNCHNDTPLMVARSRRVIDILRGKATRPASTSQPDPSPDRSANTSPESSSRLSSNGLLSASPSSSPSQSPPRDPPGFPMAPPNFFLPSPSPPAFLPFAGVLRGPGRPVPPSPAPGGS
Q: With B2 as the molecule, how does the binding (FLAG-TPL-2 [4]) read?
A: The binding was “binds”.
